Structures can show the parent of a compound that is named as a salt. The list shows a part of the results. Many values rest on one well or one pass, so single values are uncertain.
What was measured:
Experiment in all cases: reduction in cell viability relative to untreated/vehicle; higher = more growth inhibition
Conditions in all cases: 200 nM; 72 h
[1] = test system: M229P (parental melanoma line)
[2] = test system: M229R (matched melanoma line resistant to BRAF inhibitors)
[3] = test system: M238P (parental melanoma line)
[4] = test system: M238R (matched melanoma line resistant to BRAF inhibitors)
[5] = test system: M249P (parental melanoma line)
[6] = test system: M249R (matched melanoma line resistant to BRAF inhibitors)
[7] = test system: UACC62P (parental melanoma line)
[8] = test system: UACC62R (matched melanoma line resistant to BRAF inhibitors)

SMILES | reduction in cell viability [1] | reduction in cell viability [2] | reduction in cell viability [3] | reduction in cell viability [4] | reduction in cell viability [5] | reduction in cell viability [6] | reduction in cell viability [7] | reduction in cell viability [8]
CN(C(=O)c1ccc(F)cc1C(F)(F)F)C1CCN(c2nnc(-c3ccnn3C)c3ccccc23)CC1 | < 0% | < 0% | < 0% | < 0% | < 0% | < 0% | < 0% | < 0%
CC(C)C[C@H](NC(=O)[C@H](CCc1ccccc1)NC(=O)CN1CCOCC1)C(=O)N[C@@H](Cc1ccccc1)C(=O)N[C@@H](CC(C)C)C(=O)[C@@]1(C)CO1 [Carfilzomib (PR-171)] | 90.8% | 89.2% | 87.4% | 88% | 91.1% | 96% | 86.2% | 84.8%
CC(C)C[C@@H](C=O)NC(=O)[C@H](CC(C)C)NC(=O)[C@H](CC(C)C)NC(=O)OCc1ccccc1 | 80.6% | 58.9% | 89.9% | 89.9% | 92.3% | 91.6% | 61.9% | 86.5%
CCCc1nn(C)c2c(=O)[nH]c(-c3cc(S(=O)(=O)N4CCN(C)CC4)ccc3OCC)nc12 [Sildenafil citrate] | 5.32% | < 0% | < 0% | < 0% | < 0% | < 0% | < 0% | < 0%
CCC1(C)CC(=O)NC1=O (stereo not drawn) [Ethosuximide] | < 0% | < 0% | < 0% | < 0% | < 0% | < 0% | < 0% | < 0%
CC(=O)OCC(=O)[C@@]12OC(C)(C)O[C@@H]1C[C@H]1[C@@H]3C[C@H](F)C4=CC(=O)C=C[C@]4(C)[C@@]3(F)[C@@H](O)C[C@@]12C [Fluocinonide] | < 0% | < 0% | < 0% | < 0% | < 0% | < 0% | < 0% | < 0%
CC(C)OC(=O)C(C)(C)Oc1ccc(C(=O)c2ccc(Cl)cc2)cc1 [Fenofibrate] | < 0% | < 0% | < 0% | < 0% | < 0% | < 0% | 1.33% | < 0%
NC(=O)c1cnc(-c2ccc(C3(N)CCC3)cc2)c(-c2ccccc2)c1 | < 0% | < 0% | < 0% | < 0% | < 0% | < 0% | < 0% | < 0%
C=CC(=O)N1CCc2ccc(-n3c(=O)ccc4cnc5ccc(-c6cnn(C)c6)cc5c43)cc21 | < 0% | < 0% | < 0% | < 0% | < 0% | < 0% | < 0% | < 0%
Cc1cn2c(-c3cn[nH]c3)cnc2c(Nc2ccc(C(=O)N3CCNCC3)cc2F)n1 | < 0% | < 0% | < 0% | < 0% | < 0% | < 0% | < 0% | < 0%
O=C(O)/C=C/c1ccc(Cn2ccnc2)cc1 [Ozagrel hydrochloride] | < 0% | < 0% | < 0% | < 0% | < 0% | < 0% | 1.24% | < 0%
CC(C)(C)[N+]([O-])=Cc1ccc(S(=O)(=O)O)cc1S(=O)(=O)O [Disufenton sodium] | < 0% | < 0% | < 0% | < 0% | < 0% | < 0% | < 0% | < 0%
COc1ccc2ccc(=O)oc2c1CC=C(C)C [Ostol] | < 0% | < 0% | < 0% | < 0% | < 0% | < 0% | < 0% | < 0%
COc1cc(O)c2c(c1)[C@H]1O[C@@H]1C[C@H](O)[C@H](O)C(=O)/C=C\C[C@H](C)OC2=O [Hypothemycin] | 15.9% | 2.65% | 34.7% | < 0% | 30.8% | < 0% | 41.2% | 5.02%
C[C@@H](N)[C@H]1CC[C@H](C(=O)Nc2ccncc2)CC1 | < 0% | < 0% | < 0% | < 0% | < 0% | < 0% | < 0% | < 0%
O=C(O)c1ccc(-c2c[nH]c3ncc(-c4ccccc4)cc23)cc1C1CCCC1 | < 0% | < 0% | < 0% | < 0% | < 0% | < 0% | < 0% | < 0%
CCc1cc(-c2n[nH]c(C)c2-c2ccc3c(c2)OCCO3)c(O)cc1O | < 0% | < 0% | < 0% | < 0% | < 0% | < 0% | < 0% | 1.07%
NC(=O)c1ccc(-c2nc(-c3ccccn3)c(-c3ccc4c(c3)OCO4)[nH]2)cc1 | < 0% | < 0% | < 0% | < 0% | < 0% | < 0% | < 0% | < 0%
Cc1cc(CN2CCN(c3c(Br)cnc4nc(-c5ccc(N6CCN(C)CC6)cc5)[nH]c34)CC2)no1 | < 0% | < 0% | 7.52% | < 0% | < 0% | < 0% | < 0% | 38.3%
CC1(C)NC(=O)N(c2ccc([N+](=O)[O-])c(C(F)(F)F)c2)C1=O [Nilutamide] | < 0% | < 0% | < 0% | < 0% | < 0% | < 0% | < 0% | < 0%
CCOC(=O)[C@H](CCc1ccccc1)N[C@H]1CS[C@H](c2cccs2)CN(CC(=O)O)C1=O [Temocapril hydrochloride] | < 0% | < 0% | < 0% | < 0% | < 0% | < 0% | 2.11% | < 0%

Some of these compounds in order of SMILES length, low to high.
SMILES | reduction in cell viability [1] | reduction in cell viability [2] | reduction in cell viability [3] | reduction in cell viability [4] | reduction in cell viability [5] | reduction in cell viability [6] | reduction in cell viability [7] | reduction in cell viability [8]
O=C(O)/C=C/c1ccc(Cn2ccnc2)cc1 [Ozagrel hydrochloride] | < 0% | < 0% | < 0% | < 0% | < 0% | < 0% | 1.24% | < 0%
CCCc1nn(C)c2c(=O)[nH]c(-c3cc(S(=O)(=O)N4CCN(C)CC4)ccc3OCC)nc12 [Sildenafil citrate] | 5.32% | < 0% | < 0% | < 0% | < 0% | < 0% | < 0% | < 0%
CC(=O)OCC(=O)[C@@]12OC(C)(C)O[C@@H]1C[C@H]1[C@@H]3C[C@H](F)C4=CC(=O)C=C[C@]4(C)[C@@]3(F)[C@@H](O)C[C@@]12C [Fluocinonide] | < 0% | < 0% | < 0% | < 0% | < 0% | < 0% | < 0% | < 0%

Reference: the supplement of paper PMC9015667
